Drawing on PMC6427064, this text covers binding for one molecule.

These are yes or no findings as the source states them, for the method shown. Where a sequence is shown, tags or fusion partners need not be part of it.

Test [1] deals with His-I72X barttin (N-terminal 72 residues of barttin preceded by a His-tag) (UniProt Q8WZ55). Kind of test: relative SDS-PAGE band intensities of MSP and barttin; barttin in MSP1D1ΔH5 (Δ5) nanodiscs, DMPC or native-like lipid mix, dialysis or on-column biobeads; purified via IMAC, before SEC; Coomassie-stained SDS-PAGE; both purified.
For test [2] the target is unchanged. Description: relative SDS-PAGE band intensities of MSP and barttin; barttin in MSP1D1 (D1) DMPC nanodiscs, after IMAC purification to remove empty nanodiscs; Coomassie-stained tricine SDS-PAGE; copies of barttin per nanodisc estimated; both purified.

B1: His-I72X barttin (N-terminal 72 residues of barttin preceded by a His-tag) (domain or fragment, UniProt Q8WZ55 1-72)
chain: MADEKTFRIGFIVLGLFLLALGTFLMSHDRPQVYGTFYAMGSVMVIGGIIWSMCQCYPKITFVPADSDFQGI
B1: the binding result in test [1] and in test [2] was “no binding” each time.
